Assays:
[1] = Change in weight and body composition (Example 1); type: in vivo, Wistar rats; details: for body weight: diet supplemented with hesperidin (0.5%) for 3 months, end of experimental period, mean±SD
[2] = Foodstuff consumption, weight change and body composition, six months' old rats (Example 3); type: in vivo, Wistar rats

COc1ccc([C@@H]2CC(=O)c3c(O)cc(O[C@@H]4O[C@H](CO[C@@H]5O[C@@H](C)[C@H](O)[C@@H](O)[C@H]5O)[C@@H](O)[C@H](O)[C@H]4O)cc3O2)cc1O [hesperidin, (S)-7-[[6-0-(6-deoxy-α-L-mannopyranosyl)-β-D-glucopyranosyl]oxy]-2,3-dihydro-5-hydroxy-2-(3-hydroxy-4-methoxyphenyl)-4H-1-benzopyran-4-one]
body weight ([1]; Hp OVX: oophorectomised rats): 406.3 ± 12.7 g
body weight ([1]; Hp SH: sham-operated rats): 335.4 ± 15.4 g
body composition (% fat mass with respect to total body weight) ([1]; between groups T SH, T OVX, Hp SH, Hp OVX, hesperidin 0.5% in diet, 3 months): no significant difference
body composition (percentage of fat mass) ([2]; all groups (FIG. 9)): not significantly modified
foodstuff consumption ([2]; groups SH, OVX, SH Hp, OVX Hp, hesperidin diet 72 days (FIG. 7)): no significant difference

From patent US8859612B2, “Use of hesperidin or one of its derivatives for making a medicine for bone formation stimulation” (Institut National de la Recherche Agronomique (INRA), priority 2002, dated 2014)
